Source: US9657022B2, “7-OXO-1,6-diazabicyclo[3.2.1]octane derivatives and their use as antibacterial agents” (WOCKHARDT LIMITED, priority 2014, dated 2017)
At least one structure is not confirmed: it was looked up by name or label, or the drawing left a doubt.

Tested on: Class C beta-lactamase CMY/DHA (E. coli M50)
Assay: Beta-lactamase enzyme inhibition (Nitrocefin, crude enzyme)
Format: biochemical
Experimental: Absorbance was measured at 485 nm by UV-spectrophotometer. The IC50 was calculated by plotting absorbance against concentration through Sigmoidal dose response curve using Graph Pad software.
The enzyme inhibition was expressed as IC50.

`O=C(C[C@@H]1CCCNC1)NNC(=O)[C@@H]1CC[C@@H]2CN1C(=O)N2OS(=O)(=O)O` [Example 5, (2S,5R)-sulfuric acid mono-{2-[N′-(2-(S)-piperidin-3-yl-acetyl)-hydrazinocarbonyl]-7-oxo-1,6-diaza-bicyclo[3.2.1]oct-6-yl}ester] gave an IC50 of 30 nM.
